Source: patent publication US20080075628A1, “STERILIZED MINOCYCLINE AND RIFAMPIN-CONTAINING MEDICAL DEVICE” (MEDTRONIC, INC., priority 2006, published 2008)
At least one structure is not confirmed: it was looked up by name or label, or the drawing left a doubt.

Procedure: Materials and Methods: Minocycline and rifampin were incorporated into discs, sheet stock and silicone boots and subjected to Steam, EtO, gamma radiation and e-beam sterilization as follows:
Each boot was cut into pieces (24) with scissors. The pieces were extracted together in a 60-125 ml jar w/top. All the pieces were placed in jar, and 4:1 THF/ethanol (50 mL for thick boots; 15 mL for thin boots) was added. The pieces were allowed to swell, and the drug is extracted for 1 hour (1st extraction). The extract was then collected and transferred to a 25-100 mL volumetric flask. A second 4:1 THF/ethanol (50 mL for thick boots w/holes; 10 mL for thin boots with holes) extraction was added to the jar, and the transfer pipette was rinsed with this second extract and discarded. The pieces were allowed to swell, and the drug is extracted for 1 hour (2nd extraction). The extract was then collected and transferred to the 25-100 mL volumetric flask containing the first extract. A small amount of extra solvent was needed to make up to volume due to solvent lost to evaporation and polymer swell. This amount also served as a final rinse of both the polymer and the transfer pipette.
Extraction Process—Sheet Stock
Discs was cut from the sheet stock with a die press. The discs were extracted separate in a 1 oz jar w/top. 4:1 THF/ethanol (5 mL) was added. The pieces were allowed to swell, and the drug is extracted for 1 hour (1st extraction). The extract was then collected and transferred to a 10 mL volumetric flask. A second 4:1 THF/ethanol (5 mL) extraction was added to the jar, and the transfer pipette was rinsed with this second extract and discarded. The pieces were allowed to swell, and the drug is extracted for 1 hour. (2nd extraction). The extract was then collected and transferred to the 10 mL volumetric flask containing the first extract. A small amount of extra solvent was needed to make up to 10 mL due to solvent lost to evaporation and polymer swell. This amount also served as a final rinse of both the polymer and the transfer pipette.
After extraction with THF/ethanol 4:1, extract was transferred to an HPLC vial and injected directly. The following high performance liquid chromatography (HPLC) method was used:
1. Chromatographic Conditions: • Instrument: Agilent 1100 stack • Column: Prodigy analytical column (150×4.6 mm) • Detection mode: UV detection at 238 nm • Flow rate: 1.0 mL/min • Column temperature: 25° C. • Injection volume: 10 uL • Mobile phase A: 1.4 g/L dibasic sodium phosphate buffer pH 6.8 • Mobile phase B: ACN 100%

Compound: CN(C)c1ccc(O)c2c1C[C@H]1C[C@H]3[C@H](N(C)C)C(O)=C(C(N)=O)C(=O)[C@@]3(O)C(O)=C1C2=O [minocycline]
- incorporated minocycline recovered after e-beam sterilization (e-beam, sheet stock, range): 94.1-96.1%
- incorporated minocycline recovered after ethylene oxide sterilization (ethylene oxide, sheet stock incorporating minocycline and rifampin, range over the media tested): 86.8-100%
- incorporated minocycline recovered after gamma radiation (gamma radiation, sheet stock, range over the media tested): 75.8-89.8%
- minocycline recovered after steam sterilization (steam sterilization, silicone sheet stock): no minocycline was recovered
